Screen size: about 53,000 sequences; about 3,700 (7%) were called active.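 Rule for the calls: active = gene knockdowns whose robust z-score for IL-1 alpha signal is at least 2 or at most -2, so actives lie on both sides; inactive = the rest.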 Some of the results follow.

This assay can be described thus: Components of the Cytosolic LPS Sensing Pathway: Gene Identification via Genome-wide siRNA Screen.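 Note: robust z of the log signal after scaling to non-targeting control siRNA wells of the plate.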 To be noted: RAW264.7 macrophages, IL-1a HTRF, actives lie on both sides, screened at 100 nM (by protocol), cells primed 5 h with Pam3CSK4 first. In short, it runs like this:
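RAW264.7; siRNA 100 nM final, RNAiMAX, 48h 37 degrees C; Pam3CSK4 5 h; LipidA + TransIT-TKO 24 h; IL-1a HTRF; CellTiter-Glo viability; robust z vs negative-control median.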
For orientation: TR-FRET usually uses a lanthanide donor and a delayed reading to cut background.
As for CGGGAAGCAUCACUAUUUCTT against Nabp1, the z-score was inactive: -0.822.

In the case of GGAACCACUACAAAAGUUGTT against Pmel, the z-score is inactive: 0.166.

Consider CCAAGUGGGAUUUGCCAACTT against Ifi47, for which the z-score was inactive: -1.68.

With GGAUUGUUUCAGAGAUGGATT against Stx6, the z-score was inactive: 0.126.

Consider GGAGAGCAGUGAUAACCAGTT against Cracd, for which the z-score is active: 2.06.

On to CCAAAGAUUGCUUUCACAATT against Ube2d1, for which the z-score is inactive: -0.532.

For the sequence CCAACAUGAAGCUUGUCCATT against Zpr1, the z-score is inactive: -1.51.

On to CCUUUAAUAAAGGUCUAGGTT against Desi1, for which the z-score was inactive: 0.354.

As for GGGCUGUUCCAAAACACAGTT against Flad1, the z-score was inactive: 1.1.

For the sequence GGAGUCUCAGAACAGCACATT against Spg11, the z-score is inactive: 0.0597.

GGACUUAAAAGUCACAUCATT against Tcf4: the z-score is inactive: 0.387.

Turning to GGAACAUCAUCCACUGGAATT against Crhr1, the z-score is active: 6.

For the sequence GGAAGAUUCAUGUUCCUAUTT against Mug1, the z-score is inactive: 0.423.

As for GCUUGAAUGUUAAAGCCAATT against Fbxo34, the z-score was inactive: 0.0889.

Consider GGUGGAGAUUAUUCAUGUUTT against Dpp8, for which the z-score was active: 2.31.

In the case of CGAUGAUAACGAAAUGAACTT against Scn3a, the z-score was inactive: -0.027.

With GGCCUUUAACAAGUUUCUATT against Csn1s1, the z-score was inactive: 0.283.

Consider GCCACAGGUAUGAGAAUGATT against Abra, for which the z-score was inactive: 0.914.

Take GCGGAUGAAUACUUACUUATT against Fbxl12os: the z-score was inactive: 0.13.

In the case of GGUUUAUGACAAACUGAAATT against Enpp4, the z-score is inactive: -0.0826.

Take GCCCUUCAAAAGGAGCAGUTT against Cap1: the z-score was inactive: 1.86.

On to GGUAAAGAAAGCCUUUUUUTT against Prkag1, for which the z-score is inactive: 0.701.

For GGAAACAAUAACAACUUCCTT against Eppin, the z-score was inactive: 1.03.

On to GGAAAAACUAUGUUGCUGATT against Slc26a10, for which the z-score was inactive: -0.637.

As to GGAGAUGGUUAACCUCAGATT against Lurap1l, the z-score is inactive: 0.674.

As to GGGCUUUGUGCCCAACAUGTT against Rtcb, the z-score was inactive: 0.278.

For GGACAGAUGACUUCAAUACTT against Gm4736, the z-score was inactive: 0.422.

For the sequence GGACAAUUCCAUGCUUCCCTT against Il24, the z-score was inactive: -0.00641.

Regarding GGAUCUUAGAGAUGAUUACTT against Slc35g1, the z-score is inactive: 1.18.

Regarding GGAUAGUCAUCAACAGAGCTT against Psma7, the z-score is active: -2.42.

For the sequence CCAGUAUGAGAACUACGAUTT against Loxl1, the z-score is inactive: -0.345.

In the case of GGAUCACGUUUCAAACAUCTT against Mtmr12, the z-score is inactive: 0.296.

In the case of GGCUGAUCGACUUAGAGCUTT against Pkp3, the z-score is inactive: 0.624.

As for GGGAGUGCCUGGGUUUGUATT against Dusp28, the z-score was active: 3.19.

GGCAAGUUAAUGGAUCAAATT against Tspan2: the z-score was inactive: -0.891.

Turning to CCUCGGCGAGAUAUUGUGUTT against Gal3st1, the z-score was inactive: -0.522.

In the case of GCUACGAAUACAUGCGACATT against Plekhj1, the z-score was inactive: -0.906.

Turning to CCCAUUUAUUCUCCUUUAUTT against Smurf1, the z-score was inactive: -0.0979.

GGUGGGAUUGUUCUUAAAUTT against Drap1: the z-score was inactive: -0.0667.

With GGAACAAAGAAAUGCAAUATT against Ncr1, the z-score is inactive: -1.18.

On to CGUACAACAACUAACUUUATT against Ube2v2, for which the z-score was inactive: 0.583.

On to GGAGAGUGAUGAACAGAUGTT against Pctp, for which the z-score was active: 2.21.

For the sequence AUCCCAAAGUUCGUUGUUATT against Olfr307, the z-score was inactive: -0.48.

For GGGAAAGGGCAUUUUCUUUTT against Znrf1, the z-score was inactive: -0.627.

Consider GGGCACACGUACCAACUAUTT against Mib2, for which the z-score was inactive: -0.458.

For the sequence GCCUUACAUGAGCCCAUGUTT against Olfr550, the z-score is inactive: -1.96.

In the case of GGAUCCGUUUUGGUGGAAUTT against Enpp4, the z-score is inactive: 0.255.

Turning to GGGCGAUAUUAUGAGCAACTT against Atp1b2, the z-score was active: 3.78.

In the case of CCUGGUGAAGCUAAUCACCTT against Adamts13, the z-score was inactive: -1.

Take GCCUGACUUUAUGGUAAAATT against Mnat1: the z-score is inactive: -0.127.

Turning to GGCAACAUUAGAAGACAGUTT against Tfb1m, the z-score is inactive: -0.591.

As to CGGAGUAACUCAACUAACATT against Tcte2, the z-score was inactive: -1.02.

GGUGAACUUGGCAGAGCUGTT against Prdx5: the z-score is inactive: -0.98.

As for GGGUUCAACACAUUCUCUGTT against Vmn1r232, the z-score is inactive: 0.808.

Turning to GGAUAAAUGUCGUUAUAACTT against Zdhhc17, the z-score was inactive: 0.129.

Turning to GGCACUGAAAAUAUAUUUGTT against Cs, the z-score was inactive: -0.346.

With GCUUCUGGUGGUCAUAGCUTT against Kdm8, the z-score was inactive: 0.719.

Consider GCGACCUUGAAUGGAUUCGTT against Rps29, for which the z-score is inactive: -0.712.

On to GGAAUGAAGUCUGUCUUCGTT against Zdhhc7, for which the z-score was inactive: 0.648.

Consider “GGAUAUUUGUCUUCUGGGUTT against Krtap19-9b”, for which the z-score is inactive: 0.195.

Consider GGUAAUAAUCUCCUAGAGUTT against Bach1, for which the z-score was inactive: 0.285.

CCACCAACUACAGAACAUATT against BC016548: the z-score was inactive: -1.27.

Take CGGGAGUAUCUGCUUCAGUTT against Ndufb4: the z-score is inactive: 0.336.

As to GCAGUGAUCCGGAACAAAUTT against Tmc3, the z-score is inactive: -0.455.

On to CCAACCUGCGCGACUGCCGTT against Sts, for which the z-score is inactive: -0.0204.

In the case of CCAGCUCUAGUUUUUAAUCTT against Coq3, the z-score was inactive: 0.0426.

For the sequence GCAUCAGAUGGCUAUUUGUTT against Wipi2, the z-score is inactive: 1.27.

For GGUCAGCAGCCCAAACAUUTT against Ubl3, the z-score is inactive: 0.513.

Regarding CCUUGAUGUAGCAGGUUUGTT against Aoc2, the z-score was inactive: 1.42.

As for CCCAUCUGAUUGUGCACAUTT against Ctu2, the z-score is inactive: 1.47.

With GGUAAUUGCCAUAGAAAAUTT against Erv3, the z-score is inactive: -1.27.

For GGAUUUGAGCCUUGUUCCATT against Klk9, the z-score is inactive: 1.42.

For the sequence UAGUGAGCAAGGAAUUGGATT against Gm20815, the z-score was inactive: -0.238.

As for GGACCUCAAAGACAACCGGTT against Mri1, the z-score was inactive: -0.434.

Regarding GGCCUUUUACAAUGGAACCTT against Slc2a9, the z-score is inactive: -0.224.

With GCAAAAGCUUUACUUAGUATT against Prl3c1, the z-score was inactive: 0.555.

Consider GGAACACAAUGGGACGAGUTT against Ccl11, for which the z-score was inactive: -1.12.

Take GGCCGGAUGGCUCCAUUAUTT against Mmp28: the z-score is inactive: -0.0597.

Take GGUCGAAGUGGACAUCUUUTT against Grik4: the z-score was inactive: -0.831.

As for GCCUACAGAGAUCUAUAAUTT against Gmds, the z-score was inactive: 0.457.

In the case of GGAUAACUUUAUGAAUGAGTT against Loxl3, the z-score is inactive: -0.463.

As to GGAUGCUAUUGUGAAUGUGTT against Dnmt3b, the z-score is inactive: -0.0135.

On to GGUGCAAGUUUUUCAGUCUTT against Castor2, for which the z-score was inactive: 0.411.

Take GUUUGGAGUGAUGAUUGAGTT against Pla2g2e: the z-score was inactive: 0.926.

Regarding GGCAGAUGGCAAAGAAUUATT against Pbxip1, the z-score is inactive: 0.508.

For GCCUGGUACAGAACCAGUATT against Ntsr2, the z-score was inactive: 0.547.

Take GGCUUUGGACAGAAUGUGGTT against Itgam: the z-score is inactive: -0.683.

As for CGCCAUCCCAUGUUACUCUTT against Papss2, the z-score is inactive: -0.972.

On to GUAUCAGCCGAGCAACAUCTT against Mrpl34, for which the z-score was inactive: 0.577.

As to GGCCACAUUGUCCUAUCAGTT against Cdh16, the z-score was inactive: 0.0595.

Take GGGAUGCUGUCUUCUGUCATT against Prex1: the z-score is active: -3.39.

GGGAGAAGAAAACUGGCUATT against Pnlip: the z-score is inactive: -0.957.

Regarding GGCAACUGUUUCUGCUCCGTT against Ap4e1, the z-score was inactive: -0.746.

In the case of GCAAAGGUCAGGACUAUUUTT against Qrfpr, the z-score was inactive: 0.331.

As for CGGUCCUUUUUAAACACUUTT against Nrbp2, the z-score is inactive: -0.174.

For CCUUGACCGAGGAAGACAATT against Scgb1b27, the z-score is inactive: 0.744.

For GGUAAUGAGGACAUGGAUCTT against Lyrm4, the z-score is inactive: 0.467.

For the sequence GCUAUGGCCAUUAUUGGAGTT against H2-D1, the z-score was inactive: 0.657.

On to GGCUUUCUUUCCCAUCGAUTT against Dpf2, for which the z-score was inactive: -1.65.

As to GGCCUCAGACCUUCUAUGATT against Mtap, the z-score was inactive: -0.149.

Take GGGAGAUGCAACAACAAGATT against Epx: the z-score is inactive: -0.847.

GGUGUGAGUGUAAGUUUAUTT against Wnt16: the z-score was inactive: 1.1.

In the case of GGAGAACAAGGCAAAAGAATT against Mindy4, the z-score was inactive: -0.945.

Turning to GCCUUGAUAAUGUACGGCATT against Blvra, the z-score was inactive: -0.88.

GCCCUGAGACCACGAUAUUTT against AF067063: the z-score was inactive: 1.48.

For the sequence GGCGAAAAGCCUUUUCCCUTT against Zic1, the z-score was inactive: 0.334.

For CCCAAGACUCGUACACGCATT against Ggn, the z-score was inactive: 0.121.

In the case of GCAGGAGAGUUUUGUUUUUTT against Mterf1a, the z-score was inactive: -0.506.

The values above are taken from PubChem BioAssay AID1508600 (Functional Genomics Laboratory (NCATS/FGL), 2020).
